In US10905680B2, “Methods of treatment for cholestatic and fibrotic diseases” (Genfit, priority 2016, dated 2021):
At least one structure is not confirmed: it was looked up by name or label, or the drawing left a doubt.

Columns and labels:
[1] = tested on: Normal Human Dermal Fibroblasts (NHDF); experiment: ACTA2 transcripts in TGFβ1-induced normal human dermal fibroblasts (RT-qPCR); format: cell-based; conditions: TGFβ1 10 ng/ml, 24 hours
Procedure: Serum-deprived normal human dermal fibroblasts (NHDF) were preincubated for 1 hour with NTZ (A) or TZ (B) before the activation with TGFβ1 (10 ng/ml). After 24 hours of incubation, the expression of ACTA2 was measured by RT-qPCR. The expression values were then transformed as fold induction over TGFβ1 control. Data are presented as mean (triplicates)±SEM (Standard Error of Mean). Statistical analyses were performed by a student's t-test (for TGFβ-stimulated vs unstimulated conditions); [#: p<0.05; ## p<0.01; ### p<0.001] or by aone-way ANOVA followed by Bonferroni post-hoc tests (for compound-treated samples vs TGFβ1 control). [*: p<0.05; **: p<0.01; ***: p<0.001], using GraphPad Prism 7.04 software.
Normal Human Dermal Fibroblasts (NHDF) (Lonza) were cultured in Fibroblast Basal Medium (FBM) (Lonza cat # CC-3131) supplemented with FGM-2 SingleQuots™ Kit (Lonza cat # CC-3132) and 2% FBS. […]
Quantitative PCR was then carried out using the MyiQ Single-Color Real-Time PCR Detection System (Biorad). […]
For each gene, the standard curves were drawn by selecting the best points (at least three points) in order to have PCR reaction efficiency close to 100% and a correlation coefficient close to 1. Expression levels were determined using the standard curve equation for both the housekeeping gene and the target gene (taking into account the specific PCR efficiency of each target gene).

[2] = tested on: Normal Human Lung Fibroblasts (NHLF); experiment: TGFβ1-induced expression of α-SMA protein in human lung fibroblasts (ELISA); format: cell-based; conditions: concentration of 1 μM; TGFβ1 1 ng/ml, 48 hours
Procedure: NTZ (A) or TZ (B) was added to serum-deprived lung fibroblasts (NHLF) 1 hour before the activation with TGFβ1 (1 ng/ml). After 48 hours of incubation, the expression of α-SMA was measured by ELISA. The obtained values were transformed into percentage inhibition over TGFβ1 control. Data are presented as mean (triplicates)±standard deviation (SD). Statistical analyses were performed by one-way ANOVA followed by Bonferroni post-hoc tests, using Sigma Plot 11.0 software. [*: p<0.05; **: p<0.01; ***: p<0.001 (comparison versus TGFβ1 1 ng/mL group)].
The Normal Human Lung Fibroblasts (NHLF) (Lonza) were cultured in Fibroblast Basal Medium (FBM) (Lonza cat # CC-3131) that was supplemented with FGM-2 SingleQuots™ Kit (Lonza cat # CC-3132). The complete medium contains 2% fetal bovine serum. For the activation experiments with TGFβ1, the NHLF were plated at a density of 5×10^3 cells per well in 96-well plates. The next day, cell-culture medium was removed, and cells were washed with PBS (Invitrogen cat #14190). NHLF were deprived for 24 hours in serum-free, insulin-free and rhFGF-B-free medium. […]
The level of α-SMA was measured using a Sandwich ELISA. […]

With `CC(=O)Oc1ccccc1C(=O)Nc1ncc([N+](=O)[O-])s1` [NTZ, [2-[(5-nitro-1,3-thiazol-2-yl)carbamoyl]phenyl]ethanoate] the “antifibrotic effects (ACTA2 transcripts) in TGFβ-activated normal human dermal fibroblasts” value [1] was “significant and dose-dependent antifibrotic effects” and the “antifibrotic effects (α-SMA) in normal human lung fibroblasts” value [2] was “significant antifibrotic effects”.
